# Counter-ions that a name gives are not always drawn. Some of the results follow. This data set is noisy: repeats of one test often differ as much as different tests do.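 Human fetal ventral-midbrain neural progenitor line ReNCell VM, differentiated without mitogens. Images stained for doublecortin (early neurons) or tyrosine hydroxylase (dopaminergic neurons) were scored by blinded raters against untreated wells (0 = no change). Repeats and both raters were averaged, and compounds averaging 2 or higher were picked as hits for retesting.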
# How the values were obtained:
# [1] = test system: ReNCell VM; test: neuronal differentiation score (DCX+ cell fraction vs untreated, manual image score) (score (-3 to 3)); higher = more neuronal differentiation; conditions: 2 uM, 2 weeks
# [2] = test system: ReNCell VM; test: dopaminergic neuron differentiation score (TH+ cell fraction vs untreated, manual image score) (score (0 to 3)); higher = more TH+ dopaminergic neuron differentiation; conditions: 2 uM, 4 weeks, BDNF 10 ng/ml + GDNF 10 ng/ml
compound,measurement,setting,value
Nc1ncnc2c1nc(Br)n2C1OC2COP(=O)(O)O[C@@H]2C1O (some centres not stated) [8-Bromo-cAMP sodium],neuronal differentiation score,[1]; library: LOPAC,inactive: 0
same,dopaminergic neuron differentiation score,[2]; library: LOPAC,inactive: 0
CC(C)(C)NC[C@H](O)COc1nsnc1N1CCOCC1 [Timolol maleate salt],neuronal differentiation score,[1]; library: Prestwick,inactive: 0
same,dopaminergic neuron differentiation score,[2]; library: Prestwick,inactive: 0
NC(=O)OCC(O)COc1ccc(Cl)cc1 (configuration not stated) [Chlorphensin carbamate],neuronal differentiation score,[1]; library: Prestwick,inactive: 0
same,dopaminergic neuron differentiation score,[2]; library: Prestwick,inactive: 0
C[C@@H]1CC(=O)NN=C1c1ccc(NN=C(C#N)C#N)cc1,neuronal differentiation score,[1]; library: Spectrum,inactive: 0
same,dopaminergic neuron differentiation score,[2]; library: Spectrum,inactive: 0
Cc1ccc(S(=O)(=O)N[C@@H](Cc2ccccc2)C(=O)CCl)cc1 [N-p-Tosyl-L-phenylalanine chloromethyl ketone],neuronal differentiation score,[1]; library: LOPAC,inactive: 0
same,dopaminergic neuron differentiation score,[2]; library: LOPAC,inactive: 0
O=C1Nc2ccc(Cl)cc2[C@@](C#CC2CC2)(C(F)(F)F)O1 [Efavirenz],neuronal differentiation score,[1]; library: Prestwick,inactive: 0
same,dopaminergic neuron differentiation score,[2]; library: Prestwick,inactive: 0
CN1CCC[C@H]1c1cccnc1 [(-)-Nicotine hydrogen tartrate salt],neuronal differentiation score,[1]; library: LOPAC,inactive: 0
same,dopaminergic neuron differentiation score,[2]; library: LOPAC,inactive: 0
COc1cccc(OC)c1C(=O)N[C@@H]1C(=O)N2[C@@H]1SC(C)(C)[C@@H]2C(=O)O,neuronal differentiation score,[1]; library: Spectrum,active: 3
same,dopaminergic neuron differentiation score,[2]; library: Spectrum,inactive: 0
CNC(=N)NCCC[C@H](N)C(=O)O [NG-Monomethyl-L-arginine acetate],neuronal differentiation score,[1]; library: LOPAC,inactive: 0
same,dopaminergic neuron differentiation score,[2]; library: LOPAC,inactive: 0
CCC1NC(=O)c2cc(S(N)(=O)=O)c(Cl)cc2N1 (configuration not stated) [Quinethazone],neuronal differentiation score,[1]; library: Prestwick,inactive: 0
same,dopaminergic neuron differentiation score,[2]; library: Prestwick,inactive: 0
CCCCCCOc1ccccc1C(N)=O,neuronal differentiation score,[1]; library: Spectrum,inactive: 0
same,dopaminergic neuron differentiation score,[2]; library: Spectrum,inactive: 0
COC(=O)c1c(C)cc(OC(=O)c2c(C)cc(O)c(C=O)c2O)c(C)c1O,neuronal differentiation score,[1]; library: Spectrum,inactive: 0
same,dopaminergic neuron differentiation score,[2]; library: Spectrum,inactive: 0
CN[C@@H]1[C@@H](O[C@H]2O[C@H](CO)[C@@H](N)[C@H](O)[C@H]2O)OC2C[C@@H](N)[C@@H](O[C@H]3[C@H](O)[C@@H](O)[C@H](N)C[C@@H]3N)OC2[C@@H]1O (some centres not stated),neuronal differentiation score,[1]; library: Spectrum,inactive: 0
same,dopaminergic neuron differentiation score,[2]; library: Spectrum,inactive: 0
COc1c2ccoc2nc2c(OC)c(OCC(O)C(C)(C)O)ccc12 (configuration not stated) [Evoxine],neuronal differentiation score,[1]; library: Phytochemical,inactive: 0
same,dopaminergic neuron differentiation score,[2]; library: Phytochemical,inactive: 0
O=C(OCCOCCO)c1ccccc1Nc1cccc(C(F)(F)F)c1 [Etofenamate],neuronal differentiation score,[1]; library: Prestwick,inactive: 0
same,dopaminergic neuron differentiation score,[2]; library: Prestwick,inactive: 0
CN(C)[C@@H]1C(O)=C(C(N)=O)C(=O)[C@@]2(O)C(O)=C3C(=O)c4c(O)cccc4[C@@](C)(O)[C@H]3[C@H](O)[C@@H]12,neuronal differentiation score,[1]; library: Spectrum,inactive: 0
same,dopaminergic neuron differentiation score,[2]; library: Spectrum,inactive: 0

# A second format for some results above.
compound | measurement | setting | value
COc1c2ccoc2nc2c(OC)c(OCC(O)C(C)(C)O)ccc12 (configuration not stated) [Evoxine] | neuronal differentiation score | [1]; library: Phytochemical | inactive: 0
same | dopaminergic neuron differentiation score | [2]; library: Phytochemical | inactive: 0

# Source: the supplement of paper PMC4635364
